Experimental data published in PMC5647368.
Results are given in words; binding and its absence hold for the method and conditions named. Binding seen in cells or lysates may run through a third protein. Some entries that bind do so weakly or less than the wild type. For part of these data: Sequences can lack the tags named with a protein. Blank lines part the entries; values can stand above or below the substance they belong to.

Chains of the proteins cited; added tags and fusions are not shown.
UniProt Q04206: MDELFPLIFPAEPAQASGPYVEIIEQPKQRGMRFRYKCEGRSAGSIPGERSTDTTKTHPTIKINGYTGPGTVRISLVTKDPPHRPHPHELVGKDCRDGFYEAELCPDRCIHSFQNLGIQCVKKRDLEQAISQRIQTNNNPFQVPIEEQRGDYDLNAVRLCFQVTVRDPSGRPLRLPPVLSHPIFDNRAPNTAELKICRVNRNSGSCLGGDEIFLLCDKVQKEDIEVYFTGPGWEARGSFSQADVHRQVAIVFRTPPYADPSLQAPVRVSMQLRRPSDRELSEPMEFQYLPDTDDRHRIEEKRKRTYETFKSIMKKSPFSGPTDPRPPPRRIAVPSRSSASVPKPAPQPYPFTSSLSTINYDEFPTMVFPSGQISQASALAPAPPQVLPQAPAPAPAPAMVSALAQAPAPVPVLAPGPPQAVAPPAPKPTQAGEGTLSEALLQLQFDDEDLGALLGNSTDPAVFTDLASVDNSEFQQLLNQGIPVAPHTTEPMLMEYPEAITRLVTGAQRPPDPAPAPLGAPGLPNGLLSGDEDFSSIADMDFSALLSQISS

Columns and labels:
[1] = target: Flag-tagged p65/RelA full length (UniProt Q04206); assay: co-IP; extracts of HEK293T cells transfected with Flag-p65/RelA, HA-p62 and Myc-LRRC25 expression plasmids, harvested 24 h after transfection; immunoprecipitation and immunoblot
Flag-LRRC25 full length = target: T1, Flag-LRRC25 full length (UniProt Q8N386); assay: co-IP; extracts of HEK293T cells co-transfected with two tagged constructs, harvested 24 h after transfection; immunoprecipitation (anti-Flag in Fig. 5D and 5F) and immunoblot for the other tag; beads washed six times with low-salt lysis buffer (50 mM Hepes pH 7.5, 150 mM NaCl, 1 mM EDTA, 1.5 mM MgCl2, 10% glycerol, 1% Triton X-100)
T1 sequence: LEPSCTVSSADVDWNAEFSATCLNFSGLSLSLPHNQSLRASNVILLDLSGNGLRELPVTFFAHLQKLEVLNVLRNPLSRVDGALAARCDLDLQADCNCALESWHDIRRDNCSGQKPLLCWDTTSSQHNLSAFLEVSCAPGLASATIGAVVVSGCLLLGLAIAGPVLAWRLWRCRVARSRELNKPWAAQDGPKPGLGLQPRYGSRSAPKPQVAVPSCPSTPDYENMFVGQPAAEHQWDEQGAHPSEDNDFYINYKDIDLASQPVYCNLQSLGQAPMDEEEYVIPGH

[2] = target: p65/RelA (endogenous, THP-1 cells) (human (endogenous in THP-1)) (UniProt Q04206); assay: co-IP; endogenous proteins; THP-1 cells treated with or without LPS; cell extracts precipitated with anti-p65/RelA, immunoblot with anti-LRRC25 or anti-p62; IgG control

binding [1]: binds
Substance: HA-p62 (from UniProt Q13501 1-440)

binding (Flag-LRRC25 full length): binds
Substance: HA-p65/RelA (from UniProt Q04206 1-551)

binding [2]: binds
Substance: p62 (encoded by SQSTM1) (endogenous, THP-1 cells) (from UniProt Q13501 1-440)
